# Results of single-concentration screens

Measurements from “University of Dundee, Small-Polar-MMV Screening Library” (2021), ChEMBL document CHEMBL3988442.

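Whole-parasite assay of Trypanosoma brucei over 72 hours; the read-out is not stated. Tested at 30 µM. The record gives no direction; compounds that gave an IC50 in retests scored well above the rest, so higher reads as stronger inhibition. Values scatter widely below zero; nearly all retest evidence comes from the higher of the two concentrations used. Size under these conditions: about 64,000 compounds, about 940 of them at 50% or above in at least one test.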

The filed quantity is “Percent Effect” (%). How 0% and 100% were set is not recorded. Most values in the screen are low, and negative values occur. Compounds were drawn at random from those tested, without regard to their results.

{"compound": "CCN(c1ccc(C(=O)NCc2cc[nH]n2)cc1)C(C)C", "Percent Effect": -3.818}
{"compound": "COCCN1C[C@@H](C)[C@@]2(COCCN(C(=O)c3ccncc3)C2)C1.O=C(O)C(F)(F)F.O=C(O)C(F)(F)F", "Percent Effect": -0.7555}
{"compound": "Cc1ccc(SCCCNC(=O)c2cn([C@H]3CC[C@@H](N)CC3)nn2)cc1", "Percent Effect": 59.21}
{"compound": "CC(C)n1cnnc1C1CCCN(S(=O)(=O)c2c[nH]cn2)C1", "stereo": "stereo not shown", "Percent Effect": -70.11}
{"compound": "CCN(CC)C(=O)CN(C)C(=O)c1cc(-c2cccc(Cl)c2)no1", "Percent Effect": 19.62}
{"compound": "NC(=O)c1cc(C2CCCN(CCCOc3ccc(F)cc3)C2)n[nH]1", "stereo": "stereo not shown", "Percent Effect": 0.58}
{"compound": "COC(=O)C(C)(C)NC(=O)c1scnc1Cl", "Percent Effect": -91.81}
{"compound": "Cc1cnn(CC2CCCCN2Cc2nc(N)c3ccccc3n2)c1", "stereo": "stereo not shown", "Percent Effect": 14.94}
{"compound": "CC(C)c1nc2n(n1)CC(NCc1nnc(-c3ccco3)o1)CC2", "stereo": "stereo not shown", "Percent Effect": -3.913}
{"compound": "O=C(O)C(F)(F)F.[H][C@@]12CCN(S(C)(=O)=O)C[C@]1(C(=O)NCc1ccccn1)CCO2", "Percent Effect": -59.53}
{"compound": "Cn1nc2c(cc1=O)CN(Cc1nc(-c3cccnc3)no1)CC2", "Percent Effect": 10.26}
{"compound": "NC(=O)c1cccc(C(=O)N2CCCC(n3ccnc3)C2)c1", "stereo": "stereo not shown", "Percent Effect": -6.582}
{"compound": "CN1CCOCC2(CCCN(C(=O)c3ccc(-n4cccc4)cc3)C2)C1.O=C(O)C(F)(F)F", "stereo": "stereo not shown", "Percent Effect": -21.52}
{"compound": "Cn1ccnc1C1(O)CCCN(Cc2ccncc2)CC1", "stereo": "stereo not shown", "Percent Effect": -19}
{"compound": "Cc1cc(N(C)C)nc(C2COCCN2Cc2cscn2)n1", "stereo": "stereo not shown", "Percent Effect": -5.631}
{"compound": "CCCOc1ccc(CNC2CCCc3c2cnn3CC)cc1OC", "stereo": "stereo not shown", "Percent Effect": 17.79}
{"compound": "COc1ccc(CC(=O)NC2(C)CCS(=O)(=O)C2)cc1F", "stereo": "stereo not shown", "Percent Effect": -24.74}
{"compound": "CNS(=O)(=O)c1cccc(C(C)NCc2ccc(C)o2)c1", "stereo": "stereo not shown", "Percent Effect": -33.33}
{"compound": "CCOCC1CN(Cc2ccncc2)Cc2nn(C)cc21.O=C(O)C(F)(F)F.O=C(O)C(F)(F)F", "stereo": "stereo not shown", "Percent Effect": 29.67}
{"compound": "CCn1ccnc1CN1CCCN(C(=O)COC2CCCC2)CC1", "Percent Effect": -20.1}
{"compound": "Cn1cnc(S(=O)(=O)N2CC3(CCN(c4ccccc4)C3)C2)c1.O=C(O)C(F)(F)F", "Percent Effect": -14.55}
{"compound": "c1ccc2c(c1)CCN(c1nc(-c3ccncc3)nc3c1CCNC3)C2", "Percent Effect": -16.52}
{"compound": "COc1cccc(N2CCC(CNCc3cccc(C#N)c3)C2)c1", "stereo": "stereo not shown", "Percent Effect": 77.75}
{"compound": "Cc1cc(C)n(CC2CCCCN2C(=O)c2cnn(C)c2)n1", "stereo": "stereo not shown", "Percent Effect": -16.9}
{"compound": "COCC(=O)NCC(Cc1cccc(F)c1)n1cccc1", "stereo": "stereo not shown", "Percent Effect": -24.91}
{"compound": "COCCN1CCC(C(=O)N(C)Cc2c[nH]c3ccc(C)cc23)C1", "stereo": "stereo not shown", "Percent Effect": -5.208}
{"compound": "OCCn1nccc1C1CCN(CCOc2cccc(F)c2)CC1", "Percent Effect": 20.91}
{"compound": "O=C(O)C(F)(F)F.O=C1COC2(CCN(Cc3nccs3)CC2)CN1c1ccccc1", "Percent Effect": -9.07}
{"compound": "N#Cc1ccc(C(=O)O)nc1/C=C/c1cccc(Cl)c1", "Percent Effect": -53.65}
{"compound": "CCc1ncc(C(=O)N2CCC(Nc3ccc(C)nn3)CC2)s1", "Percent Effect": 17.07}
{"compound": "O=S(=O)(c1cc(F)ccc1F)n1cc(Cl)cn1", "Percent Effect": -21.76}
{"compound": "N#Cc1cccc(CN2CCn3cc(Cn4cccn4)nc3C2)c1.O=C(O)C(F)(F)F.O=C(O)C(F)(F)F", "Percent Effect": -30.96}
{"compound": "O=C(O)C(F)(F)F.O=C(O)C(F)(F)F.c1nc2n(c1CN1CCCCC1)CCN(C1CCOC1)CC2", "stereo": "stereo not shown", "Percent Effect": -102.4}
{"compound": "Cc1nsc(C(=O)NCCc2ccccc2)n1", "Percent Effect": -23.25}
{"compound": "CN(Cc1cnn(C)c1)c1nccc(-c2cc(C(=O)O)ccn2)n1", "Percent Effect": -4.148}
{"compound": "Cc1nc(NCc2nccn2C)cc(C2COCCN2)n1", "stereo": "stereo not shown", "Percent Effect": 1.069}
{"compound": "CC(Cc1ccc2c(c1)OCO2)c1cn(CCc2c[nH]cn2)nn1", "stereo": "stereo not shown", "Percent Effect": -31.67}
{"compound": "O=C1NCCN(CC2CCCCC2)C1CC(=O)N1CCc2n[nH]cc2C1", "stereo": "stereo not shown", "Percent Effect": -41.16}
{"compound": "Cc1nc(N)sc1C(=O)N1Cc2ccccc2OC2(CCOCC2)C1", "Percent Effect": -71.47}
{"compound": "CNC(=O)NC(=O)C(C)Nc1ccccc1OCCOC", "stereo": "stereo not shown", "Percent Effect": 8.391}
{"compound": "CCCN1CC2(CCN(C)CC2)CC1C(=O)NCCn1ccc(C)n1", "stereo": "stereo not shown", "Percent Effect": -8.447}
{"compound": "CN(CCO)C[C@@H]1CN(C(=O)c2c(F)cccc2Cl)C[C@@H]1CO", "Percent Effect": -22.39}
{"compound": "CCc1nc(C2CCCN2C(=O)c2ccc(=O)n(CC)n2)no1", "stereo": "stereo not shown", "Percent Effect": -39.84}
{"compound": "CCC1CN(C(=O)c2ccc(O)c(C)c2)CCN1C(C)C", "stereo": "stereo not shown", "Percent Effect": -30.02}
{"compound": "Cc1ccc(CC2CCCN2CC(=O)NCc2ccccn2)cc1", "stereo": "stereo not shown", "Percent Effect": -24.1}
{"compound": "CC(C)NC(=O)CCNC(=O)Nc1cccc(-c2nccn2C)c1", "Percent Effect": -10.1}

Some entries from above, unchanged:

Compound	Percent Effect
OCCn1nccc1C1CCN(CCOc2cccc(F)c2)CC1	20.91%
Cc1ccc(SCCCNC(=O)c2cn([C@H]3CC[C@@H](N)CC3)nn2)cc1	59.21%
CNS(=O)(=O)c1cccc(C(C)NCc2ccc(C)o2)c1 (stereo not shown)	-33.33%
CC(C)n1cnnc1C1CCCN(S(=O)(=O)c2c[nH]cn2)C1 (stereo not shown)	-70.11%
CCN(c1ccc(C(=O)NCc2cc[nH]n2)cc1)C(C)C	-3.818%
O=C(O)C(F)(F)F.O=C1COC2(CCN(Cc3nccs3)CC2)CN1c1ccccc1	-9.07%